Here are results for 28 targets from the supplement of paper PMC6411743.

Protein sequences, listed by entry. Tags and fused reporters are not part of them. Lines headed by an entry give the natural chain unless they say otherwise; changes in a name come on top.
UniProt O75348, whole entry: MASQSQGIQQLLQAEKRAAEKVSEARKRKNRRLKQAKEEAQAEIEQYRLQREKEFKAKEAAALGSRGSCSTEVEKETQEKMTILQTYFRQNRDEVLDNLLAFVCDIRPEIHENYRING
UniProt O75791: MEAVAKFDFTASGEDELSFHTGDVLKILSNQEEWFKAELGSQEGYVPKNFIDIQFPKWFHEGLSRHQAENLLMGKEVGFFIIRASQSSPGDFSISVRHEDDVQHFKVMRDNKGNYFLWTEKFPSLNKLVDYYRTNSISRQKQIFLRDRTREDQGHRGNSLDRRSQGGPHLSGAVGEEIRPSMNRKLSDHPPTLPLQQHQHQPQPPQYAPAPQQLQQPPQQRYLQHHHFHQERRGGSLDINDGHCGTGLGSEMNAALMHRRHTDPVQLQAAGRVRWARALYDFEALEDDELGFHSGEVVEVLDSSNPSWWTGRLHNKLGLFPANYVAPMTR
UniProt O95881: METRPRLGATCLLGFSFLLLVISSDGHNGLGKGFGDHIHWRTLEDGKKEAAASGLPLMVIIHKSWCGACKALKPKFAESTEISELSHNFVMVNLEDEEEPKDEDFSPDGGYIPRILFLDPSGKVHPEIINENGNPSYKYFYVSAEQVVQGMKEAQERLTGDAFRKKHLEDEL
UniProt O75947: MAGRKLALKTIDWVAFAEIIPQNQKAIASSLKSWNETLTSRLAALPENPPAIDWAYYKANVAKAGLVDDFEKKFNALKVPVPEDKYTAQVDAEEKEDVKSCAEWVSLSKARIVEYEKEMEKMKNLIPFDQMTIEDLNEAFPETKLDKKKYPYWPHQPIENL
UniProt O75132: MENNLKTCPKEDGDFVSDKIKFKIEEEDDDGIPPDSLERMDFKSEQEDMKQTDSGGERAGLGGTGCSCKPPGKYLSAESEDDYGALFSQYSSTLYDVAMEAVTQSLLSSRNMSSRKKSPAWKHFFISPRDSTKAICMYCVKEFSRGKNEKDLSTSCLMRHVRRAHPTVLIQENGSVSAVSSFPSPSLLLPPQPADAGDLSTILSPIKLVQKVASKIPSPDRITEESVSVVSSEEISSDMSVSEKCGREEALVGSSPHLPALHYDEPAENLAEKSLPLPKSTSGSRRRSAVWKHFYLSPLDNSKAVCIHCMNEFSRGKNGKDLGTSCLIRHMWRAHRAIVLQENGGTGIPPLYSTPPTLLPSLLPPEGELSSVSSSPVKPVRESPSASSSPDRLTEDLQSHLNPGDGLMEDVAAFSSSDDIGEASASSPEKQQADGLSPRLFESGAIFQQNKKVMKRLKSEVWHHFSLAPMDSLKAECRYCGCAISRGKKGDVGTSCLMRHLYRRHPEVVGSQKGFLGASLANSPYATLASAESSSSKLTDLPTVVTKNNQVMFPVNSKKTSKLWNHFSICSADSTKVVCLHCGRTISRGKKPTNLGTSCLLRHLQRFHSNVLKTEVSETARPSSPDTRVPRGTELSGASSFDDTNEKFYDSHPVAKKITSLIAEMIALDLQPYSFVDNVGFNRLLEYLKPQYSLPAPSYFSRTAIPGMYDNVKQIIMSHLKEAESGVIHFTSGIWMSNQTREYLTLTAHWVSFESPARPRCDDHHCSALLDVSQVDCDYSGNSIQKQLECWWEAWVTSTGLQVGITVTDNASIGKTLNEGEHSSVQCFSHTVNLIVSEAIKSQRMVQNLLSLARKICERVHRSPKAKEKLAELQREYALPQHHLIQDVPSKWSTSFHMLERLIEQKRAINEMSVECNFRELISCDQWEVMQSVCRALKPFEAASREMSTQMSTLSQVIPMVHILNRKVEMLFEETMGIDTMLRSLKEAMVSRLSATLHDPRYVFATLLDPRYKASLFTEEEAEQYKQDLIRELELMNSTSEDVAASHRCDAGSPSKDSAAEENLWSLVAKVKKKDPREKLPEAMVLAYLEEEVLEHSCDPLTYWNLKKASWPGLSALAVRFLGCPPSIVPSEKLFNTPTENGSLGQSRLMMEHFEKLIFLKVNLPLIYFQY
UniProt O75368: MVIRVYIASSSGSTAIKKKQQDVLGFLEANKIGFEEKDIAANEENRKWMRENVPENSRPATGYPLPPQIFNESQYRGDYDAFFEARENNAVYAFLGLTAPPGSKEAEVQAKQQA
UniProt O75145: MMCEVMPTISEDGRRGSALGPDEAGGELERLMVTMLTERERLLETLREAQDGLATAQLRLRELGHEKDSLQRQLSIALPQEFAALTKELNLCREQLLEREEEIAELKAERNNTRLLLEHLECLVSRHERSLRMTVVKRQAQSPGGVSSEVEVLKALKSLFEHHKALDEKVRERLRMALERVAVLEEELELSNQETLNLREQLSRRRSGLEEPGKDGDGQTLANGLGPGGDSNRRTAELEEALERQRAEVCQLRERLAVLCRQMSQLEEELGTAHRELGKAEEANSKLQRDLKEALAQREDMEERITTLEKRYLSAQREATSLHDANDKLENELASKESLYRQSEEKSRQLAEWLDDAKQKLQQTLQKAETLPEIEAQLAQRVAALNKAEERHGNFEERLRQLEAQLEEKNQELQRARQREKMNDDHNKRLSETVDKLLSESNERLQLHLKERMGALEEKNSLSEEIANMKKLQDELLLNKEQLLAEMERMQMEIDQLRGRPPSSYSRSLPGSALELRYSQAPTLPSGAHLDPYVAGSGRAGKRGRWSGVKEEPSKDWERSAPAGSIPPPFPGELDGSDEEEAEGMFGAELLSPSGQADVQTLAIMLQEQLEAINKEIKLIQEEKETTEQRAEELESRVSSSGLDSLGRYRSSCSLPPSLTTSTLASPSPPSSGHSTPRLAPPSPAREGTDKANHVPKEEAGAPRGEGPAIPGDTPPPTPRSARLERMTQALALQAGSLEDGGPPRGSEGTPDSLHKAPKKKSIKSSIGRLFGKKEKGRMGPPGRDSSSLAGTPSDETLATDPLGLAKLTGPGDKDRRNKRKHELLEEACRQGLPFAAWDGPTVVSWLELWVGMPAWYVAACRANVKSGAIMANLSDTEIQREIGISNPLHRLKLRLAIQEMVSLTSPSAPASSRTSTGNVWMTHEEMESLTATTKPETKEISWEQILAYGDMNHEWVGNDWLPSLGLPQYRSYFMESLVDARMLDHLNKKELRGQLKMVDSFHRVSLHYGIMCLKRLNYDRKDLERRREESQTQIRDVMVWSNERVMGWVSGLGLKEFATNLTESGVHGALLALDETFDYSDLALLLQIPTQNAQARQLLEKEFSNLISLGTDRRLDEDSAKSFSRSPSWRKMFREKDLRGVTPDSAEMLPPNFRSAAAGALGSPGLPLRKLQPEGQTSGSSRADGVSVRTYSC
UniProt O75964: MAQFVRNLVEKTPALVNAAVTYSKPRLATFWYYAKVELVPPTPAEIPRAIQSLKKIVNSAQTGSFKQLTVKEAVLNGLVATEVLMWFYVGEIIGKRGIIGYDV
UniProt O95551: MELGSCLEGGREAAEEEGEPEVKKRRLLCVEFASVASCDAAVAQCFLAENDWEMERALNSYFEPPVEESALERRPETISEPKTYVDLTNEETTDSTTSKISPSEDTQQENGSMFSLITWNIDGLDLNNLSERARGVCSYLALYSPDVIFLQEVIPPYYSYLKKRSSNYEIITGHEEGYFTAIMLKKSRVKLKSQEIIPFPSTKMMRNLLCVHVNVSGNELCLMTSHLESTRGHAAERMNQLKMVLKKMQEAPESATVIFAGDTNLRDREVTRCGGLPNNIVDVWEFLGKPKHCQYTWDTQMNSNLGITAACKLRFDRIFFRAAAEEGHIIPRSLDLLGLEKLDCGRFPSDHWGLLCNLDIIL
UniProt O95630, whole entry: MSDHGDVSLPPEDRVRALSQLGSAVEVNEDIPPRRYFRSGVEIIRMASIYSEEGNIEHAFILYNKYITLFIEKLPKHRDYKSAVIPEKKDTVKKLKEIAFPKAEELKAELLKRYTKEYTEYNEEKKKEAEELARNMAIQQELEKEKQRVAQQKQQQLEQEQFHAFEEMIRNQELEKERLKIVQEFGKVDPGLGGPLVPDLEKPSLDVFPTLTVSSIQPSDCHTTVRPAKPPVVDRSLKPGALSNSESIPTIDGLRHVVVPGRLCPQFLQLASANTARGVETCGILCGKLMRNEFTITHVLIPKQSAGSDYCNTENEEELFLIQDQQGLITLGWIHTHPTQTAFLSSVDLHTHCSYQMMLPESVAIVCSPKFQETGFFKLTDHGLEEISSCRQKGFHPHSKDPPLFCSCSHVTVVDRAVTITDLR
UniProt O95219: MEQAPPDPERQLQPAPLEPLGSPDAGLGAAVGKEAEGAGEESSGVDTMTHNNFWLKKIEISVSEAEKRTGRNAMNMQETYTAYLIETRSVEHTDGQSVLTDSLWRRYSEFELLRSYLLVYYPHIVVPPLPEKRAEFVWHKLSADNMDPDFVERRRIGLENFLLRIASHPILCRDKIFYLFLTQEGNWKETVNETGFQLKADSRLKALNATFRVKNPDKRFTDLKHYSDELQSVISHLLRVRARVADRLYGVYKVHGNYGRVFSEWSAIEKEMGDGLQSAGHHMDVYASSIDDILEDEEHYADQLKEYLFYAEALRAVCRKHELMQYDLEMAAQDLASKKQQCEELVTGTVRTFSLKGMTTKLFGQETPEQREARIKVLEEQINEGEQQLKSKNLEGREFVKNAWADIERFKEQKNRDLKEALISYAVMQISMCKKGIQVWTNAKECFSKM
UniProt O95182, whole entry: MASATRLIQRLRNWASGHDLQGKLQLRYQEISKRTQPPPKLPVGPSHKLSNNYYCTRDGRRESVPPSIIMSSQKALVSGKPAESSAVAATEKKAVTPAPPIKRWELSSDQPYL
UniProt O75928, whole entry: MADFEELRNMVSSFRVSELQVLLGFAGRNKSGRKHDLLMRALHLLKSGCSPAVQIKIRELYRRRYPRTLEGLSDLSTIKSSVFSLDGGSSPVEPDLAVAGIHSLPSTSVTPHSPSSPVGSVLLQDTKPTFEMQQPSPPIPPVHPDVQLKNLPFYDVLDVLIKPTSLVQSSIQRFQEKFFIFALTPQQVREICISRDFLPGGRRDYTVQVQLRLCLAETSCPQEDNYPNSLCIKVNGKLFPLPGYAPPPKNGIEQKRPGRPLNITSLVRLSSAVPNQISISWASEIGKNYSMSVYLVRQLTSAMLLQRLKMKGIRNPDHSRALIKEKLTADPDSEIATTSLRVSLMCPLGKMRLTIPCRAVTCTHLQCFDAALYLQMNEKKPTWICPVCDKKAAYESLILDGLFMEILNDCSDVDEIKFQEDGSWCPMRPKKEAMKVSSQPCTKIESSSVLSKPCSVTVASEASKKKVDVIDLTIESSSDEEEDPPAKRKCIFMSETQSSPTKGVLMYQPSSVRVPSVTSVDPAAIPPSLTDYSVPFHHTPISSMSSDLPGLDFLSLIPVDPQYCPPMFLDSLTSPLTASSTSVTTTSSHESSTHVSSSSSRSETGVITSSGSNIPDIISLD
UniProt O95239: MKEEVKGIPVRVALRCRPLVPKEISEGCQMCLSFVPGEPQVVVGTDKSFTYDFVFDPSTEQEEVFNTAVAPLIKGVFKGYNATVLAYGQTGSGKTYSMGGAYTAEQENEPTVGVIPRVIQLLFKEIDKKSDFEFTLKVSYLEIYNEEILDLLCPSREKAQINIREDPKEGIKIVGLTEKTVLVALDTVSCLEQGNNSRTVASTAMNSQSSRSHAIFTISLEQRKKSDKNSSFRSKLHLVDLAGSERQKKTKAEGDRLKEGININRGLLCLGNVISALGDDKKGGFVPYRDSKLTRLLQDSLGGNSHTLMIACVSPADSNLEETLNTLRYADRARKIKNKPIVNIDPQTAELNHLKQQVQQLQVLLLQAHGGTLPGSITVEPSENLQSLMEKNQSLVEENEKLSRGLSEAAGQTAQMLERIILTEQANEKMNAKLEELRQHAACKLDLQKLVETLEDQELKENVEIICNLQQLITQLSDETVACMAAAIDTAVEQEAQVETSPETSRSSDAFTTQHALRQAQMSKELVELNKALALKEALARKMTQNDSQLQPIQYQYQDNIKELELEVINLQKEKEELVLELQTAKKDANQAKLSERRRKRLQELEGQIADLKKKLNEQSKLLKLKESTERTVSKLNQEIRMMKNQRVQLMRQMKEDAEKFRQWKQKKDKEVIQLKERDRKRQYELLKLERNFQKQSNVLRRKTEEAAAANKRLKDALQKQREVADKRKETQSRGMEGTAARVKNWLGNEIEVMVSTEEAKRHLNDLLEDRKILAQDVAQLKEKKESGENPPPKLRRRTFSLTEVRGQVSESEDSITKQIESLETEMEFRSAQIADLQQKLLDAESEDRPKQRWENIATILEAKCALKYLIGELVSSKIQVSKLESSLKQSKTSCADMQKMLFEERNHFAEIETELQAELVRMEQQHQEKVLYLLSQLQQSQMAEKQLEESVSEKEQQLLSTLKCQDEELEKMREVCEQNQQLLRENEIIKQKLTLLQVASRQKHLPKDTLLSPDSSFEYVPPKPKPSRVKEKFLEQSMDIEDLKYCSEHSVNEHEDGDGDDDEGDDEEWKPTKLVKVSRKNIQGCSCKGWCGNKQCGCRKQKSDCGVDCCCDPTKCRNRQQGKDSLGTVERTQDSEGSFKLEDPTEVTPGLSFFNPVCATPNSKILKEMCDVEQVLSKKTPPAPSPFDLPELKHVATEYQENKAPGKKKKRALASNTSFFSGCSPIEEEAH

± gives the standard deviation of the averaged measurements. Some of the results follow.

Compound in the assay: Nc1nc2c(ncn2[C@@H]2O[C@H](COP(=O)(O)OP(=O)(O)OP(=O)(O)O)[C@@H](O)[C@H]2O)c(=O)[nH]1 [guanosine triphosphate]
Nature of the assay: NP40-soluble protein abundance relative to vehicle (solubility fold change) (ratio); higher = more soluble protein in presence of GTP. Conditions: concentration: 0.1mM. A digest of the protocol: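 Data come from three independent experiments in which Dounce-homogenised Jurkat crude lysate was treated at eight concentrations from 0.1 to 10 mM. Treatment ran 10 min at room temperature and then 3 min at 37 °C, after which 0.8% NP40 and benzonase were added for 60 min at 4 °C before ultracentrifugation. The supernatant underwent TMT labelling and LC-MS/MS, and vsn-normalised intensities were expressed as fold change against the detergent-processed vehicle in each replicate.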
On to ATP6V1G1 (UniProt O75348), for which the NP40-soluble protein abundance was determined as 0.985 ± 0.14.
The result for GRAP2 (UniProt O75791) reads 1.02 ± 0.014; that for TXNDC12 (UniProt O95881), 0.934 ± 0.06.
Under KATNA1 (UniProt O75449) stands 1.05 ± 0.054; under UniProt O75947, 0.949 ± 0.11; under CTSV (UniProt O60911), 0.983 ± 0.018.
The result for ZBED4 (UniProt O75132) reads 1.02 ± 0.043.
For UniProt O75190-2|O75190-4|O75190, the NP40-soluble protein abundance worked out at 1.15 ± 0.062.
The result for SH3BGRL (UniProt O75368) reads 0.86 ± 0.16; that for UniProt O75145 and related entries, 0.96 ± 0.11; that for UniProt O75964, 0.835 ± 0.053.
Regarding TK1 (UniProt P04183), the NP40-soluble protein abundance is 1 ± 0.031.
As for UniProt O95551 and related entries, the NP40-soluble protein abundance was 0.98 ± 0.015.
The result for UniProt O95696 and related entries reads 0.934 ± 0.17.
With UniProt O94766 and related entries, the NP40-soluble protein abundance turned out to be 1.01 ± 0.048.
Under STAMBP (UniProt O95630) stands 0.987 ± 0.01; under UniProt O95786 and related entries, 1.1 ± 0.036; under UniProt O75164, 0.979 ± 0.057.
Under SNX4 (UniProt O95219) stands 1.03 ± 0.0014.
Under EIF2S1 (UniProt P05198) stands 1 ± 0.017.
On to TYMS (UniProt P04818), for which the NP40-soluble protein abundance was 0.939 ± 0.027.
Take SNRNP200 (UniProt O75643): the NP40-soluble protein abundance stood at 1.04 ± 0.073.
The result for NDUFA7 (UniProt O95182) reads 1.07 ± 0.073; that for NPM3 (UniProt O75607), 1.04 ± 0.13; that for UniProt O75928 and related entries, 0.9953 ± 0.0044.
Under BANF1 (UniProt O75531) stands 1.42 ± 0.34; under KIF4A (UniProt O95239), 1.01 ± 0.018.
Under P0619_C544|P48735 (UniProt P48735) stands 0.993 ± 0.02.
